## Binding screen against folded nucleic acids

From ROBIN, a set of small-molecule microarray screens (doi:10.1002/anie.202211358).

Targets (5′ to 3′):
SAM-II: SAM-II riboswitch RNA pseudoknot, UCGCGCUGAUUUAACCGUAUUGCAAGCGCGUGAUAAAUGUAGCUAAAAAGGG. About 200 hits among about 21,000 compounds.
TPP: TPP riboswitch RNA three-way junction, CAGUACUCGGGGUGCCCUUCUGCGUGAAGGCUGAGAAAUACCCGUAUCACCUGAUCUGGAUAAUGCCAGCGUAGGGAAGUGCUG. About 160 hits among about 24,000 compounds.
PreQ1: PreQ1 riboswitch RNA pseudoknot, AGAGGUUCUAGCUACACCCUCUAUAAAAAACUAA. From B. subtilis. About 170 hits among about 24,000 compounds.

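Compounds were printed on reactive glass slides in duplicate spots, a dye-labelled oligonucleotide was laid over them, and the fluorescence left after washing was read. The data file lists only calls. An earlier report of the laboratory on the PreQ1, TPP and SAM-II riboswitches (doi:10.1038/s41467-019-09493-3) used 1 µM RNA for 2 h and required a mean Z-score above 3 (spot signal-to-noise against the whole library), a score well above that on a control array, and duplicate spots agreeing (coefficient of variation under 100); it then also set aside compounds that hit other targets, which this list keeps. The cut-offs behind this list may differ. These are primary screening calls, not affinities; a compound without a hit may have attached poorly or may still bind in solution.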 Key: hit = hit, no hit = tested without a hit. The compounds are a random part of those screened. A dash means that no call is listed here.

Compound	SAM-II	TPP	PreQ1
CCOc1ccc(-c2noc(-c3nnn(-c4cccc(Cl)c4)c3N)n2)cc1	-	no hit	no hit
CNc1c(NS(=O)(=O)c2ccc(OC)c(OC)c2)c(=O)oc2ccccc12	no hit	no hit	no hit
CCNC(=O)[C@@H]1C[C@@H](N)CN1C(=O)c1cccc(-c2cn[nH]c2)c1	no hit	no hit	no hit
CCc1noc(N)c1C(=O)Nc1ccc(F)c(Cl)c1	no hit	no hit	no hit
Nc1c(C(=O)Nc2ccc(F)c(F)c2)sc2nc(-c3cccs3)ccc12	no hit	no hit	no hit
Cn1nc(CC2CCN(c3cc(N)ncn3)CC2)n(-c2ccccc2)c1=O	no hit	no hit	no hit
NC1=C(c2nc3ccccc3[nH]2)C(=O)CN1c1cccc(Cl)c1	-	no hit	no hit
Nc1nonc1C(=O)NCCNCc1ccccc1C(F)(F)F	-	no hit	no hit
CN(C)[C@@H](CCOc1cccc2ccccc12)c1ccccc1	no hit	no hit	no hit
CSc1nc2c(c(Nc3ccc4c(c3)OCCO4)n1)CCC2	-	no hit	no hit
c1coc(CNc2ncnc3nc[nH]c23)c1	no hit	no hit	no hit
Cc1cc(C)nc(NS(=O)(=O)c2ccc(Nc3nc(-c4ccc(F)c(C)c4)cs3)cc2)n1	no hit	no hit	no hit
Cc1[nH]c(N)c(C#N)c1C	no hit	no hit	no hit
Nc1ccc(Cl)c(-c2nc3ccccc3o2)c1	no hit	no hit	no hit
O=C(NOC[C@H](O)CO)c1ccc(F)c(F)c1Nc1ccc(I)cc1F	no hit	no hit	no hit
CCN(CCCCO)C(=O)Nc1ccc(Cl)c(C)c1	no hit	no hit	no hit
CC(C)(C)c1cc(Cn2cc(C3CCCNC3)nn2)[nH]n1 (centres unmarked)	no hit	no hit	no hit
CSCc1noc(Cn2ccnc2-c2cc3n(n2)CCNC3)n1	no hit	no hit	no hit
COc1ccc(N=c2ssc3c2-c2cc(OC)ccc2NC3(C)C)cc1	no hit	no hit	no hit
CCN1c2ccccc2C2=C(C(c3ccccc3C)C(C#N)=C(N)O2)S1(=O)=O (centres unmarked)	-	no hit	no hit
Cc1ccc(OCC(O)Cn2c(C3CC(=O)N(C(C)(C)C)C3)nc3ccccc32)c(C)c1 (centres unmarked)	-	no hit	no hit
O=C(c1cccc(OC2CCN(Cc3ccncc3)CC2)c1)N1CCCNCC1	no hit	no hit	no hit
CN(C)C[C@H]1C[C@H](CO)CN(Cc2cccc3c2sc2ccccc23)C1	no hit	no hit	no hit
Cc1ocnc1C(=O)N1C[C@@H](CN2CCCN(C)CC2)[C@@H](CO)C1	no hit	no hit	no hit
COc1ccc2[nH]c(C)c(CCNCc3c(C)nn(C)c3Cl)c2c1	no hit	no hit	no hit
COC(=O)c1ccccc1S(=O)(=O)N1CCC2(CCCNC2)C1 (centres unmarked)	no hit	no hit	no hit
Cc1nc(C)c(-c2csc(Nc3ccccc3)n2)s1	no hit	no hit	no hit
c1ccc(-c2ccc3c(c2)NCCN3)cc1	no hit	no hit	no hit
Cc1ccccc1CN(CCO)C(=O)c1cccc(C#N)c1	no hit	no hit	no hit
CC(O)CN1CC2(CCC1=O)CCN(C(=O)c1cccnc1O)CC2 (centres unmarked)	no hit	no hit	no hit
COc1ccc(CCC(=O)Nc2nc3ccc(Cl)cc3s2)cc1OC	no hit	no hit	no hit
C[C@]12CCC3=C4CCC(=O)C=C4CC[C@@H]3[C@H]1CC[C@@]2(O)CC#N	no hit	no hit	no hit
COc1ccccc1C(CCNCc1cccs1)c1ccco1 (centres unmarked)	no hit	no hit	no hit
O=C(N[C@@H]1CCNC[C@H]1O)c1ccccc1Cc1ccc(Cl)cc1	no hit	no hit	no hit
CCOC(=O)c1nc(Nc2ccc(C)c(F)c2)c2ccccc2n1	no hit	no hit	no hit
Cc1ccc(NC(=O)CCNC2CCC3(CCNCC3)CC2)c(C)c1	no hit	no hit	no hit
O=[N+]([O-])c1ccccc1S(=O)(=O)N1CCNCC1	no hit	no hit	no hit
COc1ccc(CCNCc2cccc(Cl)c2)cc1OC	no hit	no hit	no hit
CCOc1cc(Br)c(C2C(C#N)=C(N)Oc3cc4c(cc32)OCO4)cc1OCC (centres unmarked)	no hit	no hit	no hit
CC(=O)OC1C=CCC2C(=O)c3cccc(O)c3C(O)C12 (centres unmarked)	no hit	no hit	no hit
COc1ccc(-c2cc(-c3sc4nc(C)cc(C)c4c3N)on2)cc1	no hit	no hit	no hit
Cc1ccccc1N1C(=O)C(Oc2ccc(Cl)cc2)C1CNCCCOC(C)C (centres unmarked)	no hit	no hit	no hit
COc1cc(N(C)Cc2cnn(-c3ccccc3)c2)nc(N)n1	no hit	no hit	no hit
CC(=O)c1cccc(-n2cnnc2CCCO)c1	no hit	no hit	no hit
Cc1cccc2[nH]c(C3CCCN(C(=O)c4cccc(CO)n4)C3)nc12 (centres unmarked)	no hit	no hit	no hit
OCCCc1nc2n(n1)C(c1cccc(Cl)c1)C=C(c1ccccc1)N2 (centres unmarked)	no hit	no hit	no hit
CNc1ccccc1C(=O)OCC(=O)c1ccc(C)c(C)c1	no hit	no hit	no hit
O=C(Nc1nc2ccccc2s1)c1cccc(CN2CCC[C@@H]2CO)c1	no hit	no hit	no hit
O=C(c1c[nH]nc1-c1cccc(F)c1)N1CCCN([C@H]2COC[C@@H]2O)CC1	no hit	no hit	no hit
CN1c2ccccc2Sc2cc(N)ccc21	no hit	no hit	no hit
CCOc1ccc(C2C(C#N)=C(N)OC3=C2C(=O)CC(C)(C)C3)cc1 (centres unmarked)	no hit	no hit	no hit
COc1ccc(C2C(C#N)=C(N)Oc3c2sc2ccccc32)cc1OC (centres unmarked)	no hit	no hit	no hit
Cc1ccc(NC(=O)c2c(C)noc2N)cc1Cl	no hit	no hit	no hit
Cc1c(S(=O)(=O)c2ccc(F)cc2)c(N)n(CCC2=CCCCC2)c1C	no hit	no hit	no hit
CSc1nnc(-c2cccnc2)n1CCO	-	no hit	no hit
Cc1ccc(-n2nc(C(C)(C)C)cc2NC(=O)Nc2ccc(OCCN3CCOCC3)c3ccccc23)cc1	no hit	no hit	no hit
CCC(O)Cn1nc(-c2ccncc2)nc1CN1CCCN(C)CC1 (centres unmarked)	no hit	no hit	no hit
COCCOC(=O)c1cnc(Nc2nc3ccccc3o2)nc1C	no hit	no hit	no hit
Nc1c(C(=O)NCCc2ccccc2)sc2nc3c(cc12)CCCCC3	no hit	no hit	no hit
CC[C@H]1/C=C\C=C/C[C@@H](C)[C@H](O)[C@@](C)(O)C(=O)[C@@H](C)[C@H](O)[C@@H](C)C(=O)[C@@H](C)[C@H](O)[C@@H](C)/C=C\C(=O)O[C@@H]2[C@@H](C)[C@H](CC1)O[C@]1(CC[C@H](C)[C@H](C[C@@H](C)O)O1)[C@H]2C	no hit	no hit	no hit
Nc1c(Br)cc(Br)cc1Br	no hit	no hit	no hit
Cc1sc2ncnc(NC3CCCCC3)c2c1C	no hit	no hit	no hit
COc1ccc(OC)c(NC2=NS(=O)(=O)C(c3cccc(Cl)c3)=C2C)c1	-	no hit	no hit
NCCn1cccn1	no hit	no hit	no hit

The last 6 entries again:

Compound	SAM-II	TPP	PreQ1
Nc1c(C(=O)NCCc2ccccc2)sc2nc3c(cc12)CCCCC3	no hit	no hit	no hit
CC[C@H]1/C=C\C=C/C[C@@H](C)[C@H](O)[C@@](C)(O)C(=O)[C@@H](C)[C@H](O)[C@@H](C)C(=O)[C@@H](C)[C@H](O)[C@@H](C)/C=C\C(=O)O[C@@H]2[C@@H](C)[C@H](CC1)O[C@]1(CC[C@H](C)[C@H](C[C@@H](C)O)O1)[C@H]2C	no hit	no hit	no hit
Nc1c(Br)cc(Br)cc1Br	no hit	no hit	no hit
Cc1sc2ncnc(NC3CCCCC3)c2c1C	no hit	no hit	no hit
COc1ccc(OC)c(NC2=NS(=O)(=O)C(c3cccc(Cl)c3)=C2C)c1	-	no hit	no hit
NCCn1cccn1	no hit	no hit	no hit